Values quoted from earlier work, collected in patent US20040110776A1, “Use of propentofylline to control intraocular pressure” (priority 2003, published 2004).
Some entries share one result that the patent states for a list of compounds.

Tested on: human anterior segment
Conditions: perfusion of human anterior segment with purified metalloproteinases; cited from earlier work

Substance: MMP-3: purified metalloproteinase used to perfuse the human anterior segment
- duration of increased outflow facility: at least 5 days
- increase of outflow facility: more than 50%
